No constants are given. Whether binding was seen depends on the method and setting. In cells and extracts the contact can be indirect. Binding calls can cover weak binding; strength is not graded here. Where a sequence is shown, tags or fusion partners need not be part of it.
Target: T1, Elp1-c-Myc (S. cerevisiae) (UniProt Q06706)
T1 sequence: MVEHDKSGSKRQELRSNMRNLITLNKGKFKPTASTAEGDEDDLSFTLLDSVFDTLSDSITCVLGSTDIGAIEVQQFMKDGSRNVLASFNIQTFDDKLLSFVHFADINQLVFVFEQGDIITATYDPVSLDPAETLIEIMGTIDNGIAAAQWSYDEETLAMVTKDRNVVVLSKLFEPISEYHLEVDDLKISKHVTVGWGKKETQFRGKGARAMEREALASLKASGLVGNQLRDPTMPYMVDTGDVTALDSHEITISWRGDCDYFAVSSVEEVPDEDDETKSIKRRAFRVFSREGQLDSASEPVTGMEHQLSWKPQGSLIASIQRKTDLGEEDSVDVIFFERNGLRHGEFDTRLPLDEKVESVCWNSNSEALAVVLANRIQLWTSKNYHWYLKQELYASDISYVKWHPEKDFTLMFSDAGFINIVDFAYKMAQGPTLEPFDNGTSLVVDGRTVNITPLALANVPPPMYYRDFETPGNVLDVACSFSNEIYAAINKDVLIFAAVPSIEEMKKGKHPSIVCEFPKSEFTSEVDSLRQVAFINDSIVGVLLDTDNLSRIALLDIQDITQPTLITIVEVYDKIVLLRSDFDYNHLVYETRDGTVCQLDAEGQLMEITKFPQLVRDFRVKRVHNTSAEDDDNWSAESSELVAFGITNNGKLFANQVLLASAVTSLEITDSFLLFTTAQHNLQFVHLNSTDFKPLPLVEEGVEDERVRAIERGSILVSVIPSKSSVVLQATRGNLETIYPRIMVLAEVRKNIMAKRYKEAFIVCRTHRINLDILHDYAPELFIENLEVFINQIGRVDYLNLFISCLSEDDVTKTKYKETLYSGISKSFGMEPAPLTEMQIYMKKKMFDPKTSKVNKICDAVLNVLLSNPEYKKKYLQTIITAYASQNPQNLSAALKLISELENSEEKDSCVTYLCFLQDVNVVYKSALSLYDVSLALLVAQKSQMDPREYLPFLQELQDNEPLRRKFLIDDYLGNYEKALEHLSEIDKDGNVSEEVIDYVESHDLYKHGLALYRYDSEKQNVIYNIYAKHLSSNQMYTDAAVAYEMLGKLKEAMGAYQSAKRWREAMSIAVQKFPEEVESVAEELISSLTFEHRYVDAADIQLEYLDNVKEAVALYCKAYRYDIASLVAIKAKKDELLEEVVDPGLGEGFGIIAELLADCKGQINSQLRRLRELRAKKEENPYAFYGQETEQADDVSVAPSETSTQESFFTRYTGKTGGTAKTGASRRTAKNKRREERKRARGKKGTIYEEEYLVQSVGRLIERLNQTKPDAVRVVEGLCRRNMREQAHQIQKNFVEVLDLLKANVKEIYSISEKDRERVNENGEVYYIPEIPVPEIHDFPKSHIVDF
Assay: co-IP; Elp1-c-Myc immobilised on antibody-coupled Dynabeads; 8 mg total yeast protein in B60 buffer (50 mM HEPES-KOH pH 7.3, 60 mM KOAc), 4°C overnight; Kti12-HA detected by Western blot

Chains of the proteins cited; added tags and fusions are not shown. Lines headed by an entry give the natural chain unless they say otherwise; changes in a name come on top.
UniProt P34253: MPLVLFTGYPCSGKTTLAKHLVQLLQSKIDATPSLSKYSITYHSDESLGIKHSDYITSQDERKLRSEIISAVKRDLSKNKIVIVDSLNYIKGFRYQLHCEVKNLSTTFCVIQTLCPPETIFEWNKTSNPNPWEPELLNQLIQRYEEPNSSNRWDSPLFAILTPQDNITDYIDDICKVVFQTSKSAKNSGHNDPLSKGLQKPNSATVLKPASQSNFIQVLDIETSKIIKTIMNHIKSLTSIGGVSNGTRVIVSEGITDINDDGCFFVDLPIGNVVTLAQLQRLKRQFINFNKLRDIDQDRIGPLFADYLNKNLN

binding: binds
Substance: Kti12-HA R291A (from UniProt P34253)
